Consider 32 targets from the supplement of paper PMC10849652.

The chains behind the UniProt entries cited, without tags or fusion partners. Where a name states a change or a piece, a line headed by the entry shows the natural chain unless it says otherwise.
UniProt O95057: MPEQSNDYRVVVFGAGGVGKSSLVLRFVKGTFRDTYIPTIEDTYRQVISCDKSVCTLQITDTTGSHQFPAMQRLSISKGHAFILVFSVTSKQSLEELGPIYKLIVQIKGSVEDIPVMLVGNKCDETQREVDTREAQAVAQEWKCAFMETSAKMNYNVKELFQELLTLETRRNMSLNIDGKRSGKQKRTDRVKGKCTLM
UniProt Q8NHQ9: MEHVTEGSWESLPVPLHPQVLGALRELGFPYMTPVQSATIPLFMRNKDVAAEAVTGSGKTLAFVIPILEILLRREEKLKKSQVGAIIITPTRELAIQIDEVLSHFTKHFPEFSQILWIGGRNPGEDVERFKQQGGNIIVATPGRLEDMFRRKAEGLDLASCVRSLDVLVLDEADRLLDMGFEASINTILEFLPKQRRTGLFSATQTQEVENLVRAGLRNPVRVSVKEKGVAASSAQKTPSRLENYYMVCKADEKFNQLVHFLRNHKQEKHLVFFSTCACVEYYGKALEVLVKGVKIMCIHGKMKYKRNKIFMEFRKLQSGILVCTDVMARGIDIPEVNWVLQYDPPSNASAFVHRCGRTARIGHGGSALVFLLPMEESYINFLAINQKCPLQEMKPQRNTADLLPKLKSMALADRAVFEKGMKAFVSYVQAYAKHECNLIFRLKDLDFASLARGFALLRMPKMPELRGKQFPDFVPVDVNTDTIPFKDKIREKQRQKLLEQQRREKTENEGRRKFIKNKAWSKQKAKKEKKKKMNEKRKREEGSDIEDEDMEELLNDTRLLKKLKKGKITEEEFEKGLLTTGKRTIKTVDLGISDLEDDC
UniProt Q96QB1: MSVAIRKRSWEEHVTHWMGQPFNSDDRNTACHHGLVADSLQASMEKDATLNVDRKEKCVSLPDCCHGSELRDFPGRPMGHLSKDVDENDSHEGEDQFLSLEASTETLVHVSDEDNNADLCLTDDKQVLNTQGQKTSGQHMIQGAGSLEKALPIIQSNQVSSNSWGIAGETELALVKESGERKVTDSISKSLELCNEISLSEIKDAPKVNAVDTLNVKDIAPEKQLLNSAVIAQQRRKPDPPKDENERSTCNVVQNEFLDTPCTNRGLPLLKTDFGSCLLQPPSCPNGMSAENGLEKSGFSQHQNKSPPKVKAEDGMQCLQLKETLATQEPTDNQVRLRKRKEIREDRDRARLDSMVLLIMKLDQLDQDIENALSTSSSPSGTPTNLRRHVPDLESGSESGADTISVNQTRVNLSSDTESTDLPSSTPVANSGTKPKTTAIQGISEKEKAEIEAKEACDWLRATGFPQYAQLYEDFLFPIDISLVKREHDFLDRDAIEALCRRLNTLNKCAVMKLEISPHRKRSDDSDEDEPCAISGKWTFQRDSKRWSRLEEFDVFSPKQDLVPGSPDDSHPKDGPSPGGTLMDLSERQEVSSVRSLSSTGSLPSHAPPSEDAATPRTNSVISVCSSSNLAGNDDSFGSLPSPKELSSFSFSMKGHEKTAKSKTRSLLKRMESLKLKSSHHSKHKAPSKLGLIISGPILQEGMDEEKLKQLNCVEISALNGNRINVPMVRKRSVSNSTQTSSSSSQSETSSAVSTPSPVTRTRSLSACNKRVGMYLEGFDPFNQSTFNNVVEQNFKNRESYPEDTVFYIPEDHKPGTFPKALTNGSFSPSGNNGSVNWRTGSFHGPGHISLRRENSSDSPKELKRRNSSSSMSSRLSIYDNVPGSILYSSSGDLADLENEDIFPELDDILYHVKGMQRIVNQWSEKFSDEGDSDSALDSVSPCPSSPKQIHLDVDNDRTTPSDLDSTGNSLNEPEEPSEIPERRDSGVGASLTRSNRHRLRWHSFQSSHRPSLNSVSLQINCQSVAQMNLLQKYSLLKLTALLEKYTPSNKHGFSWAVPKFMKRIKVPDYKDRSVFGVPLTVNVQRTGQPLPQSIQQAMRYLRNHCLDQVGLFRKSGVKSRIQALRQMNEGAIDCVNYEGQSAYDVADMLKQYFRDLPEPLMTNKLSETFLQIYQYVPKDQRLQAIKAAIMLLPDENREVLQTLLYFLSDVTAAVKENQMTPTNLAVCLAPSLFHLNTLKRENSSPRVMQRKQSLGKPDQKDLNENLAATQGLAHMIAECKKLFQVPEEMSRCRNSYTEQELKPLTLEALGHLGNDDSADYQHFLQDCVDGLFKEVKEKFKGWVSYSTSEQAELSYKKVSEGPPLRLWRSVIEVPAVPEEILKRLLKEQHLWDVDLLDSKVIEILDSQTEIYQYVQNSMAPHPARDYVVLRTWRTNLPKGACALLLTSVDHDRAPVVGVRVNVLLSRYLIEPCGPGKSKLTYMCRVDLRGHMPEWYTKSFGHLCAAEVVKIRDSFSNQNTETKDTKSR
UniProt Q9NVP1: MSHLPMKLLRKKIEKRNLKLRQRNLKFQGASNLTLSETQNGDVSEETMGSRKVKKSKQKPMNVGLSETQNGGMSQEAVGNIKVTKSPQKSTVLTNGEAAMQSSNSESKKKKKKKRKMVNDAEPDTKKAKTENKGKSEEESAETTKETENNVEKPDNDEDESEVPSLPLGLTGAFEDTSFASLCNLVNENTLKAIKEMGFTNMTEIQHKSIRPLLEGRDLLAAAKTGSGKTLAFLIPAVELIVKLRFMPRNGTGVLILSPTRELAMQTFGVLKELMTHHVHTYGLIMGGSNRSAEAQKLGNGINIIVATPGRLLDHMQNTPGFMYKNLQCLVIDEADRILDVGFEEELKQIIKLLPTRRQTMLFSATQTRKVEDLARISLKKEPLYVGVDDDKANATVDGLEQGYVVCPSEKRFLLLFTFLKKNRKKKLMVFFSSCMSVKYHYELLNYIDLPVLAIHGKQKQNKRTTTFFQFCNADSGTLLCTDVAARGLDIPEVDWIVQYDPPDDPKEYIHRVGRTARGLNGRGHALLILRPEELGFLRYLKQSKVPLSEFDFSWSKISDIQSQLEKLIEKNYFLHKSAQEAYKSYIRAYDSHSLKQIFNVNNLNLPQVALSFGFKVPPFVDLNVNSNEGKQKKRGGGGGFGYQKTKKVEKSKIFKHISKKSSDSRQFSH
UniProt Q6ZN54: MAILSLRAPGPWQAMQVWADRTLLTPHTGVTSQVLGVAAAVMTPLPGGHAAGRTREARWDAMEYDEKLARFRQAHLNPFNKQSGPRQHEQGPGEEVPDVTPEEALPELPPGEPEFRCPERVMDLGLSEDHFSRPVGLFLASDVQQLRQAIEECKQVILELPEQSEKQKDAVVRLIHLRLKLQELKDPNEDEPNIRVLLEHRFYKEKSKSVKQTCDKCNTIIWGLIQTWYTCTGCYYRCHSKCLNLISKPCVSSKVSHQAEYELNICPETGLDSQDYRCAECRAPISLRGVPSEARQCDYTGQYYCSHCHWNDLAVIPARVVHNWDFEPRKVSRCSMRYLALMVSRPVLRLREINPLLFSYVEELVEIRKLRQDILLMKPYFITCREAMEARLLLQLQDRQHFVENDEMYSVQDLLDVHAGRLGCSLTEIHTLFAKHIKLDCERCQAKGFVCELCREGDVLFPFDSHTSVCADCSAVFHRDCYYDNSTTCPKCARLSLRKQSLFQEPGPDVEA
UniProt Q8TF46, whole entry, looked up: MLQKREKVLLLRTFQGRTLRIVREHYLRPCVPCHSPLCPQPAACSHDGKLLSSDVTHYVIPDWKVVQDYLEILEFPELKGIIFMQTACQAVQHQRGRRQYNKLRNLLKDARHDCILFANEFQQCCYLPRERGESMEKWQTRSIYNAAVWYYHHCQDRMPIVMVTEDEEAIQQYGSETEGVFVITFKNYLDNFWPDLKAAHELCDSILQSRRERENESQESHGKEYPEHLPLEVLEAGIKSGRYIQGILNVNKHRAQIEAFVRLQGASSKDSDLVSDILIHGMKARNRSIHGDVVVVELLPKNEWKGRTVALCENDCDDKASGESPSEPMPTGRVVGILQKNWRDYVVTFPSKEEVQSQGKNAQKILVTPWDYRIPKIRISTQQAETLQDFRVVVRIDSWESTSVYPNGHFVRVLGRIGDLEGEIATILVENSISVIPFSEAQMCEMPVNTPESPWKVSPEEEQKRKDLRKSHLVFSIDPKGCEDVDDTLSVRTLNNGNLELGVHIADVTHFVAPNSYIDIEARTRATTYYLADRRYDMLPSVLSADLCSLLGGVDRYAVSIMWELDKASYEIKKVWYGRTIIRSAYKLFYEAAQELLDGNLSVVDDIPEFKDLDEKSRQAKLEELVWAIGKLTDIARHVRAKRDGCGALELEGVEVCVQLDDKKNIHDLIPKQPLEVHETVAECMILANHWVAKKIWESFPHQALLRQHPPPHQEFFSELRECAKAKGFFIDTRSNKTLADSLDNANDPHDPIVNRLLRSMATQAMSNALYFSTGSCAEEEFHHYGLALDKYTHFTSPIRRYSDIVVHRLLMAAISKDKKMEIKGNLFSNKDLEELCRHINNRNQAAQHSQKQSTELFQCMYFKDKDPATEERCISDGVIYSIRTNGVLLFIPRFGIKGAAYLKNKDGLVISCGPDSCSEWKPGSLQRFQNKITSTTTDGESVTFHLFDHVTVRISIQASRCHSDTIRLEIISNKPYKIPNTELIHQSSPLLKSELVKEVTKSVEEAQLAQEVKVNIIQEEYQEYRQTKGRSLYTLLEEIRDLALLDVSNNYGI
UniProt Q9Y222: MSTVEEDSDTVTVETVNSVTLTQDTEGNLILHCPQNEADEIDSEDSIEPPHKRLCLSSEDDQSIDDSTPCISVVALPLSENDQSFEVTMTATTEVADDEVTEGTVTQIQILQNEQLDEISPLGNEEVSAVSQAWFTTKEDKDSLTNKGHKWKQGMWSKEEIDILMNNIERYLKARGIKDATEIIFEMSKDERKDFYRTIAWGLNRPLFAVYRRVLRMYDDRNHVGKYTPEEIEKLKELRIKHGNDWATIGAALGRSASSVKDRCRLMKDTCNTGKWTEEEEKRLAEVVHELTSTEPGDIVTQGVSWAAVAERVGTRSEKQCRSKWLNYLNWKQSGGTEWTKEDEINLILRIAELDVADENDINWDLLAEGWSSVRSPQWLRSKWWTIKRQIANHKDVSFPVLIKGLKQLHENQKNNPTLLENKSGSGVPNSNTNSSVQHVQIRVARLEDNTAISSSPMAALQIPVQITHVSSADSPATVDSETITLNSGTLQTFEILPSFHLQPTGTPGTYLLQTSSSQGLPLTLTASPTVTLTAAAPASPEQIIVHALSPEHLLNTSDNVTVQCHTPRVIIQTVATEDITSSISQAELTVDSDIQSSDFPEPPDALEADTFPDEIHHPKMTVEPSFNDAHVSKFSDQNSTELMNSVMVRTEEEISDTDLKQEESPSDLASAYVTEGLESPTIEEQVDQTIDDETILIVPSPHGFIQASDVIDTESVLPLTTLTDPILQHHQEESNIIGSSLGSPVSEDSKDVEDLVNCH
UniProt Q08495: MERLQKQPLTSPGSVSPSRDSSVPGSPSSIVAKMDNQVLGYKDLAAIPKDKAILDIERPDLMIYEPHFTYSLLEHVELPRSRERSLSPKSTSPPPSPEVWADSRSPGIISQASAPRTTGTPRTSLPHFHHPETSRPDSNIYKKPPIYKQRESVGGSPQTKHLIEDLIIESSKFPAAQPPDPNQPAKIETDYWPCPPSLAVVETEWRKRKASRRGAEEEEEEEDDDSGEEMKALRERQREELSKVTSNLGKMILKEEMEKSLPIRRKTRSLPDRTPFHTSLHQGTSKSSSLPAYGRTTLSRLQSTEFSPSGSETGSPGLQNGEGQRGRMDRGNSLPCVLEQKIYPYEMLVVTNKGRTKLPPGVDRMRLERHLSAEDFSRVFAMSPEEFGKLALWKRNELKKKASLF
UniProt Q68CQ4: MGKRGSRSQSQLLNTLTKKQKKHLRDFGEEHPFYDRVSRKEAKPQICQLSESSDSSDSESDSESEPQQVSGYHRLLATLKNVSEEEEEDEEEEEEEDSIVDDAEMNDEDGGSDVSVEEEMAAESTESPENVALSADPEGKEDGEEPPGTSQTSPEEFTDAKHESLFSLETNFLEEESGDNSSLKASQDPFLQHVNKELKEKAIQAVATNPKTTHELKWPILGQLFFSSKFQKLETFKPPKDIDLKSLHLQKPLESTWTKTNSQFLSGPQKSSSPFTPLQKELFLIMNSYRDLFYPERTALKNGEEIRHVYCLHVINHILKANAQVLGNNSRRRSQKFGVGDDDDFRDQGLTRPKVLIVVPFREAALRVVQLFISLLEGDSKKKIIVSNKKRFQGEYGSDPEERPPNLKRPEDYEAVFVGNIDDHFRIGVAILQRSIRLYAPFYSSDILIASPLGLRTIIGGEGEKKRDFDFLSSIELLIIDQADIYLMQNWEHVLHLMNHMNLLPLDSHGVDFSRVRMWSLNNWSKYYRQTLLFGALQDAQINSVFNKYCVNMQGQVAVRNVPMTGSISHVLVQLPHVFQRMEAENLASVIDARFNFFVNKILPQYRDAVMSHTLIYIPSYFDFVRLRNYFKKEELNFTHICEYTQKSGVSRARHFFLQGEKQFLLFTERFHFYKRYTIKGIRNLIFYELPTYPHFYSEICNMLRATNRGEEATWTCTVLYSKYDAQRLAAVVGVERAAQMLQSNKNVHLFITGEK

The list shows a part of the results.

Holding throughout (test): log2 fold change, soluble protein after heating vs DMSO (PISA); higher = thermal stabilisation; K562 cells, 10 uM, 30 min; active = over 0.2 and 3.5 SD of the protein, either way, in both replicates (recomputed)
Compound in assay [1]: CC1=C(SC2=C1C(=N[C@H](C3=NN=C(N32)C)CC(=O)N)C4=CC=C(C=C4)Cl)C
In outline: (§1)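 K562 cells at 2×10^6 cells/mL were given 10 μM compound for 30 min. Aliquots then went through 3 min of heating across 48°C-58°C, were pooled, and were extracted in PBS with 0.5% NP-40 at 4°C, and the supernatant after 21,000xg for 90 min was quantified by TMTpro 16plex LC-MS/MS with channel sums equalised. Thermal stability relative to control samples, from duplicates, is given as log2 fold change.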

Compound in assay [2]: CC1=C2C(=CC=C1)N=C(N(C2=O)C3=CC=CC=C3C)CN4C=NC5=C(N=CN=C54)N
In short, it runs like this:
as §1

Compound in assay [3]: Cc1sc2c(c1C)C(c1ccc(Cl)cc1)=N[C@@H](CC(=O)OC(C)(C)C)c1nnc(C)n1-2
In short, it runs like this: as §1

Compound in assay [4]: c1ccc([C@@H]2C[C@H]2NC2CCNCC2)cc1
In short, it runs like this:
as §1

Compound in assay [5]: C1=CC=C(C=C1)[C@H](COC2=CC3=C(C=C2)NC(=O)N3)NC(=O)C4=CC=CN(C4=O)CC5=CC(=C(C=C5)F)F
In outline:
as §1

Turning to DDX27 (UniProt Q96GQ7), the log2 fold change in assay [1] was inactive: -0.197; in assay [2], inactive: -0.157; in assay [3] it was inactive: 0.12; in assay [4], inactive: -0.046.
With DLK1 (UniProt P80370), the figures for the log2 fold change in assay [1], in assay [2] and in assay [4] were inactive: 0.065, inactive: 0.198 and inactive: 0.051, respectively.
DDX11 (UniProt Q96FC9): the results for the log2 fold change in assay [5], in assay [2] and in assay [3] were inactive: -0.068, inactive: 0.335 and inactive: 0.059, respectively.
As for DIRAS1 (UniProt O95057), the log2 fold change in assay [3] is inactive: 0.05.
On to DHRSX (UniProt Q8N5I4), for which the log2 fold change in assay [5] is inactive: -0.077; in assay [1], inactive: 0.055; in assay [2], inactive: 0.071; in assay [4], inactive: 0.123.
Turning to DIDO1 (UniProt Q9BTC0), the log2 fold change in assay [1] was inactive: -0.038; in assay [3], inactive: -0.024; in assay [4] it was inactive: 0.038.
Take DDX55 (UniProt Q8NHQ9): the log2 fold change in assay [5] is inactive: 0.131; in assay [2], inactive: 0.056; in assay [3] it was inactive: -0.009.
As to DLC1 (UniProt Q96QB1), the log2 fold change in assay [2] is inactive: 0.212.
For the target DHX34 (UniProt Q14147), in assay [3], the log2 fold change is inactive: -0.091.
As for DDR1 isoform 5 (UniProt Q08345), the figures for the log2 fold change in assay [1], in assay [2] and in assay [4] were inactive: -0.355, inactive: 0.163 and inactive: 0.073, respectively.
In the case of DECR2 (UniProt Q9NUI1), the log2 fold change in assay [5] is inactive: -0.105; in assay [2] it was inactive: 0.077; in assay [3] it was inactive: 0.035.
For the target DNA2 (UniProt P51530), the log2 fold change was inactive: 0.211 in assay [5] and inactive: 0.2 in assay [2].
Turning to DENND1C (UniProt Q8IV53), in assay [2], the log2 fold change is inactive: 0.262.
DENND1A isoform 6 (UniProt Q8TEH3): the log2 fold change in assay [5] is inactive: 0.152; in assay [2], inactive: 0.146; in assay [3], inactive: 0.284.
Take DDX18 (UniProt Q9NVP1): the log2 fold change is inactive: -0.131 in assay [1], inactive: 0.173 in assay [3] and inactive: 0.046 in assay [4].
On to DDX24 (UniProt Q9GZR7), for which the log2 fold change in assay [1] was inactive: -0.211; in assay [2], inactive: -0.34; in assay [3], inactive: 0.196; in assay [4] it was inactive: -0.076.
As to DERPC (UniProt P0CG12), the log2 fold change in assay [5] is inactive: 0; in assay [2], inactive: -0.015.
Turning to DDX20 (UniProt Q9UHI6), the log2 fold change was inactive: 0.02 in assay [5], inactive: -0.19 in assay [1], inactive: 0.111 in assay [3] and inactive: -0.168 in assay [4].
For DGKA (UniProt P23743), the log2 fold change in assay [5] was inactive: -0.1; in assay [2], inactive: 0.322.
As for DDX52 (UniProt Q9Y2R4), the log2 fold change in assay [5] is inactive: 0.273; in assay [1], inactive: -0.2; in assay [4] it was inactive: -0.017.
On to DHTKD1 (UniProt Q96HY7), for which the results for the log2 fold change in assay [5] and in assay [3] were inactive: -0.136 and inactive: -0.132, respectively.
For the target DEF8 (UniProt Q6ZN54), the log2 fold change in assay [5] is inactive: -0.069; in assay [2] it was inactive: -0.04.
As to DESI2 (UniProt Q9BSY9), the values for the log2 fold change in assay [5] and in assay [3] were inactive: -0.051 and inactive: 0.014, respectively.
On to DET1 isoform 2 (UniProt Q7L5Y6), for which the results for the log2 fold change in assay [1] and in assay [4] were inactive: 0.009 and inactive: 0.084, respectively.
DIS3L (UniProt Q8TF46): the log2 fold change in assay [1] is inactive: -0.427; in assay [2] it was inactive: -0.019; in assay [3] it was inactive: 0.097; in assay [4] it was inactive: 0.107.
For the target DMTF1 (UniProt Q9Y222), the log2 fold change in assay [1] is inactive: -0.081; in assay [2], inactive: 0.2; in assay [3], inactive: -0.095; in assay [4] it was inactive: 0.034.
With DHX32 (UniProt Q7L7V1), in assay [3], the log2 fold change was inactive: 0.035.
DDX47 (UniProt Q9H0S4): the log2 fold change in assay [5] is inactive: -0.008; in assay [1], inactive: -0.281; in assay [2], inactive: -0.229; in assay [4], inactive: 0.093.
Regarding DMTN isoform 2 (UniProt Q08495), the log2 fold change in assay [5] was inactive: 0.044; in assay [3] it was inactive: 0.091.
As for DDX42 (UniProt Q86XP3), the log2 fold change is inactive: -0.231 in assay [5], inactive: 0.029 in assay [1], inactive: -0.124 in assay [3] and inactive: -0.047 in assay [4].
Turning to DHRS13 (UniProt Q6UX07), the log2 fold change in assay [1] is inactive: 0.084; in assay [2] it was inactive: 0.099; in assay [3] it was inactive: 0.218; in assay [4] it was inactive: -0.14.
Consider DIEXF (UniProt Q68CQ4), for which the log2 fold change in assay [1] is inactive: 0.052; in assay [2], inactive: -0.061; in assay [4], inactive: -0.139.
